From patent publication US20100120688A1
Results are given in words; binding and its absence hold for the method and conditions named. Some results given as binding are weak or reduced against the parent protein; the word gives no strength. Values belong to the binder of their own block, whether it stands above or below them.

Assays:
[1] = target: erbB2-SbdIV (recombinantly expressed subdomain IV of erbB2, GST fusion protein) (UniProt P04626); assay: SPR (Biacore), erbB2-SbdIV immobilized, peptide injected; target per legend paragraph 39 (the sheet prints no target)
[2] = target: erbB2-SbdIV (recombinantly expressed subdomain IV of erbB2, GST fusion protein) (UniProt P04626); assay: SPR (Biacore), peptide over immobilized erbB2-SbdIV

B1: B2-S22-APE (derived from erbB2) (peptide)
peptide: YCPIWKFPDEECY
modifications: cyclized by a disulfide bond between the two cysteines (air oxidation)
binding [1]: binds

B2: B2-S22-AFA (derived from erbB2) (peptide)
peptide: YCFPDEEGACY
modifications: cyclized by a disulfide bond between the two cysteines (air oxidation)
binding [2]: binds

B5: B1-S22-ALG (derived from erbB1) (peptide)
peptide: YCLVWKYADAGCY
modifications: cyclized by a disulfide bond between the two cysteines (air oxidation)
binding [2]: binds

Continued, values first:

binding [2]: binds
B3: B4-S22-AFD (derived from erbB4) (peptide)
peptide: YCFIFKYADPDCY
modifications: cyclized by a disulfide bond between the two cysteines (air oxidation)

binding [2]: binds
B4: B3-S22-APQ (derived from erbB3) (peptide)
peptide: YCPIYKYPDVQCY
modifications: cyclized by a disulfide bond between the two cysteines (air oxidation)
